# Primary screen of a compound library

Protein sequences, listed by entry. Tags and fused reporters are not part of them.
UniProt E9BF75, entry or part of it: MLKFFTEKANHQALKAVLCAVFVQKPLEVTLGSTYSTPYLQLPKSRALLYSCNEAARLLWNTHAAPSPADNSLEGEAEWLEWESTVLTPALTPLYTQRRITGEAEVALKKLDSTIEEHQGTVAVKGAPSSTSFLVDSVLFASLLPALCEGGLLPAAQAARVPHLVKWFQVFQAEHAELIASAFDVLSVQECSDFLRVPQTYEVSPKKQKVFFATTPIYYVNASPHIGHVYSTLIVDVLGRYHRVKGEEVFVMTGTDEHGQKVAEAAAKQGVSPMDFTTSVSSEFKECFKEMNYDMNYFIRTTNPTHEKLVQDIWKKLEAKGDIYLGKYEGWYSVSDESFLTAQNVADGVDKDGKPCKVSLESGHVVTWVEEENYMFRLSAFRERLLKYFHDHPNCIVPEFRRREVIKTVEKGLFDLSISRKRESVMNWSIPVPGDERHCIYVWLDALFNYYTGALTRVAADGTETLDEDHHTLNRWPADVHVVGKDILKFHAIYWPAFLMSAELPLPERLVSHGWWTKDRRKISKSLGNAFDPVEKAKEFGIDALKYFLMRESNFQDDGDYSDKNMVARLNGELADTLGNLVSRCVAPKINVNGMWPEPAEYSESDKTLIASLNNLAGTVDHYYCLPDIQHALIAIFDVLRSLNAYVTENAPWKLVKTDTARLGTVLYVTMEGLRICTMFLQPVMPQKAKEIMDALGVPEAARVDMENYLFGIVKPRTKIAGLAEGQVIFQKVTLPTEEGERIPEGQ

LdMetRS: 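Methionyl-tRNA synthetase (putative), Leishmania donovani (UniProt E9BF75). Primary screen of methionyl-tRNA synthetase; the read-out is not stated. The test concentration is not given. The values are filed as inhibition. Size under these conditions: about 68,000 compounds, about 24 of them at 50% or above in at least one test.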
Mtb heat-shock: 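Assay on Mycobacterium tuberculosis, filed only as a heat shock assay from Cornell; the read-out is not stated. The concentration is filed as 10 mM, unlikely as a test dose, so the dose is not known. Higher reads as stronger inhibition (inferred: compounds with an IC50 in retests scored well above the rest). Size under these conditions: about 69,000 compounds, about 930 of them at 50% or above in at least one test.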

Results are percentages, as filed.
How 0% and 100% were set is not recorded. Most values in the screen are low, and negative values occur.
The compounds are a random part of those screened.
A dash means the value is not listed here; it may have been measured.

structure: CCS(=O)(=O)c1ccc2c(c1)OCCCO2
LdMetRS: 12.63
Mtb heat-shock: 13.61

structure: Cc1ccc(S(=O)(=O)N2CC[C@H]3CO[C@H](CN(C)C)[C@H]3C2)cc1
LdMetRS: 6

structure: Cc1cnn(CC2CCCN2C(=O)c2cc3ccccc3[nH]c2=O)c1 (centres unmarked)
LdMetRS: 4.167
Mtb heat-shock: 1.958

structure: Cn1ccc(C(=O)Nc2cccc(-c3ccc4c(c3)CCO4)n2)cc1=O
LdMetRS: 11.23
Mtb heat-shock: -14.21

structure: Cc1nnc(CN(C)CCOc2cccc(Cl)c2)o1
LdMetRS: 12.43
Mtb heat-shock: 16.54

structure: CC1(C)CN(c2cc(C3CC3)ncn2)C[C@]1(C)O
LdMetRS: -1.626
Mtb heat-shock: -25.82

structure: CCc1noc(CN2CCCC2C(=O)OCc2ccccc2)n1 (centres unmarked)
LdMetRS: 2.957
Mtb heat-shock: 1.107

structure: Cc1cccnc1CN1CCN(Cc2ccc(-c3cc[nH]n3)o2)CC1
LdMetRS: 5.455
Mtb heat-shock: 4.391

structure: CN(C)CCN1C[C@@H]2OCCN(Cc3cnn(C)c3)[C@@H]2C1
LdMetRS: 0.3436

structure: c1cnc(Nc2ccc(C3CCCCN3)cn2)cn1 (centres unmarked)
LdMetRS: 9.449
Mtb heat-shock: 17.35

structure: COc1ccc(Br)cc1CCC(=O)N1CCCC(O)C1 (centres unmarked)
LdMetRS: 5.108
Mtb heat-shock: -20.13

structure: CC(C)=CCN1CCN(Cc2nccn2C)C(C)C1 (centres unmarked)
LdMetRS: 9.841
Mtb heat-shock: -60.04

structure: COc1cccc(CNCc2c(C(C)C)nn(C)c2N(C)C)c1
LdMetRS: 14.21
Mtb heat-shock: 43.66

structure: Cc1ccc2nc(C)c(C)c(C(=O)N[C@H]3COC[C@@H]3N3CCCC3)c2c1
LdMetRS: 6.143
Mtb heat-shock: -2.268

structure: O=C(O)C(F)(F)F.O=C(O)C(F)(F)F.[H][C@]12CCN(Cc3cccs3)[C@@]1([H])CC[C@H](COCc1ccccn1)O2
Mtb heat-shock: 4.707

structure: Cc1cccc(N(CC(=O)N2CCCCC2)C(=O)C2CCCO2)c1 (centres unmarked)
LdMetRS: 2.527
Mtb heat-shock: -12.33

structure: CN(Cc1cnn(C)c1)CC1CCCN1c1cccnn1 (centres unmarked)
LdMetRS: 10.5
Mtb heat-shock: -5.73

structure: CC(C)[C@@H]1CN(C(=O)c2ccsc2)C[C@H]1C(=O)O
LdMetRS: 15.26
Mtb heat-shock: 5.814

structure: Cc1ccc(CN2CCOCC3(C2)CN(c2ccc(C)s2)C(=O)CO3)o1.O=C(O)C(F)(F)F (centres unmarked)
Mtb heat-shock: -0.8128

structure: CN(C)c1nc2c(c(N3CCCC4(CC3)CNC(=O)O4)n1)CCCC2 (centres unmarked)
LdMetRS: 20.34
Mtb heat-shock: -16.14

structure: CC(C)N(CC(N)=O)Cc1cccc(Br)c1
LdMetRS: 16.03
Mtb heat-shock: -1.348

structure: c1ccc2c(c1)C(NC1CCCC1)CC21CCNCC1 (centres unmarked)
LdMetRS: 9.87

structure: CN1CC(=O)N(C2CCNCC2)Cc2c(NCC(C)(C)C)ncnc21
LdMetRS: 10.86
Mtb heat-shock: 2.833

structure: Cc1cc(C(=O)N2CCn3cc(CN4CCOCC4)nc3C2)no1.O=C(O)C(F)(F)F
Mtb heat-shock: -6.6

structure: Cc1ccc(CN2CCOC3(COCCN(Cc4ccncc4)C3)C2)o1.O=C(O)C(F)(F)F.O=C(O)C(F)(F)F.O=C(O)C(F)(F)F (centres unmarked)
Mtb heat-shock: -6.218

structure: CCS(=O)(=O)CC(=O)NC(c1ccccc1)C1CCCC1 (centres unmarked)
LdMetRS: 16.56
Mtb heat-shock: -4.303

structure: CN(C)Cc1cnc2n1CCN(Cc1ccsc1)CC2.O=C(O)C(F)(F)F.O=C(O)C(F)(F)F
Mtb heat-shock: -36.44

structure: CC(=O)N1C[C@@H]2CC[C@H](C1)N(S(=O)(=O)c1ccc(C#N)cc1Cl)C2
LdMetRS: 19.24

structure: c1cnc(-c2nc(C3CCOC3)no2)cn1 (centres unmarked)
LdMetRS: 3.971
Mtb heat-shock: 3.508

structure: CCCC(=O)NC1CCc2c(ccc(=O)n2Cc2csc(C)n2)C1 (centres unmarked)
LdMetRS: 6.753

structure: O=C(O)CCC(=O)Nc1nn(Cc2ccccc2Cl)cc1Cl
LdMetRS: 12.53
Mtb heat-shock: 2.15

structure: COCCN1C(=O)[C@H]2CC[C@@H]1CN(S(=O)(=O)c1ccc(C#N)cc1)C2
LdMetRS: 13.73

structure: CC(C)(C)c1noc(CN2CCCN(Cc3cccs3)CC2)n1
LdMetRS: 11.74
Mtb heat-shock: 8.167

structure: O=C(O)[C@]12CCCN(C3CCOC3)C[C@H]1CN(c1ncccn1)C2 (some centres unmarked)
LdMetRS: 6.234

structure: COCC(=O)NCc1cc(=O)n2c(n1)CN(Cc1ccsc1)CCC2
LdMetRS: 11.11
Mtb heat-shock: 1.461

structure: CCCOCC1CCN(C(=O)Cn2ncc(N3CCCC3)cc2=O)C1 (centres unmarked)
LdMetRS: 2.687
Mtb heat-shock: -9.719

structure: Nc1cc(CCCNC(=O)NC2CC2)nn1-c1ccccc1
LdMetRS: 6.404
Mtb heat-shock: -3.916

structure: CCc1nnc(CNC2CCN(c3ncnc4c(C)csc34)CC2)s1
LdMetRS: 17.39
Mtb heat-shock: 9.701

structure: Cc1ccsc1CN(Cc1ccccn1)CC(O)CO (centres unmarked)
LdMetRS: 4.816
Mtb heat-shock: -1.856

structure: CCC(CNS(C)(=O)=O)Oc1ccccc1F (centres unmarked)
LdMetRS: 6.964
Mtb heat-shock: -2.658

structure: O=C(NCCCc1ccccn1)c1cn(CCN2CCNCC2)nn1
LdMetRS: 5.602
Mtb heat-shock: -21.66

structure: N#Cc1cccc(CN2CCCC2c2ccc[nH]2)c1 (centres unmarked)
LdMetRS: -34.78
Mtb heat-shock: -7.088

structure: O=C(O)C(F)(F)F.O=C(c1ccco1)N1CCCC2(CCN(c3nncs3)C2)C1 (centres unmarked)
Mtb heat-shock: 42.37

Some entries from above, unchanged:

structure	LdMetRS	Mtb heat-shock
c1ccc2c(c1)C(NC1CCCC1)CC21CCNCC1 (centres unmarked)	9.87	-
COCCN1C(=O)[C@H]2CC[C@@H]1CN(S(=O)(=O)c1ccc(C#N)cc1)C2	13.73	-

The values are deposited in ChEMBL (CHEMBL3988442, “University of Dundee, Small-Polar-MMV Screening Library” (2021)).